# Experimental data as given in PubChem BioAssay AID1347076 (National Center for Advancing Translational Sciences (NCATS), 2019).
# Out of some 400,000 compounds screened, about 13,000 (3.2%) were called active. Inconclusive means that the source gave no clear call. Such entries were picked first, then a sample of the others. Calls follow the shape of the dose curve; as a rule, active = well fitted cell-killing curve with a large enough effect; inconclusive = small, poorly fitted or top-dose-only effect, or effect the other way; inactive = flat fitted curve, though single readings scatter. A potency beside an inconclusive call is a rough fit, not a confirmed value.
# Experiment: qHTS assay for MDR1-selective chemotherapeutics: Primary screen using the drug-selected MDR subline cells KB-V1; also: nearly all actives have a fitted effect of over 60% in size
# Details: KB-V1 MDR cells viability, CellTiter-Glo, 72 h; activity change, negative = cytotoxicity: at 46.1 µM (top of the series)
# Method in brief: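 Following 72 h at 37 degrees C with compound, KB-V1 cell viability was read by CellTiter-Glo luminescence, medium being phenol-red-free DMEM plus 10% FBS; concentration-response parameters came from normalized, curve-fitted qHTS data.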
# % is scaled to controls: 0 for no effect and ±100 for the full control effect; potency is read from the fitted curve at half-maximal effect.
Structure (SMILES),Potency,"activity change, negative = cytotoxicity"
COc1ccc(NC(=O)CCOc2ccccc2C)cc1S(=O)(=O)N1CCCCC1,"inconclusive: 16.4 µM [cytotoxic, partial curve, poor fit]",–
O=C(CN1CCN(Cc2ccccc2Cl)C1=O)NCc1ccccn1,–,inactive: -3.56%
Cc1nn(-c2nc(-c3ccc(F)cc3)cc(C(F)(F)F)n2)c(C)c1Cl,"inconclusive: 0.461 µM [rising, full curve, poor fit]",–
CC(=O)c1cc2c(cc1NC(=O)CSc1ncccn1)OCO2,–,inactive: -7.67%
O=C(CSc1nnc(C2CC2)n1C1CC1)c1ccccc1F,"inconclusive: 29.1 µM [rising, single point]",–
O=C(CN1C(=O)c2ccccc2C1=O)NCC(=O)OCC(=O)c1ccc(Br)cc1,"inconclusive: 16.4 µM [rising, partial curve, poor fit]",–
COC(CNC(=O)c1c[nH]c2ccc(S(=O)(=O)N3CCOCC3)cc2c1=O)OC,"inconclusive: 16.4 µM [rising, single point]",–
COc1ccccc1/C=C1\SC(=S)N(CCC(=O)NCCc2ccc(O)cc2)C1=O,"inconclusive: 29.1 µM [rising, single point]",–
Cc1nn(Cc2ccc([N+](=O)[O-])cc2)c(=O)n1-c1cccc(Cl)c1,"inconclusive: 7.31 µM [cytotoxic, partial curve]",–
COc1cc(C2SCC(=O)N2c2nnc(C34CC5CC(CC(C5)C3)C4)s2)cc(OC)c1OC (configuration not stated),"inconclusive: 2.91 µM [cytotoxic, partial curve, poor fit]",–
CC(C)C(NS(=O)(=O)/C=C/c1ccccc1)C(=O)NCc1ccc(F)cc1 (configuration not stated),"inconclusive: 23.1 µM [rising, single point]",–
COCCN(C(=O)COC(=O)c1ccco1)c1c(N)n(Cc2ccccc2)c(=O)[nH]c1=O,–,inactive: -1.69%
S=c1[nH]nc(-c2ccc(Cl)cc2)n1-c1ccc(Cl)cc1,–,inactive: -9.3%
Cc1nn(-c2ccccc2)c(N)c1N=Nc1ccc2ccccc2c1,–,inactive: -11.8%
Cc1ccc(C(C)C)c(OCCn2ccnc2C)c1,–,inactive: -23.8%
CCOc1ccc(C(=O)Nc2ccccc2C#N)cc1[N+](=O)[O-],"inconclusive: 29.1 µM [cytotoxic, single point]",–
Cc1ccc2nc(Cl)c(CN(Cc3cccs3)C(=O)C3CC3)cc2c1,–,inactive: -21%
CCC(C)NC(=O)CN1c2cccc3cccc(c23)S1(=O)=O (configuration not stated),–,inactive: 2.07%
CC1CCCN(CCCCOc2cccc(Br)c2)C1 (configuration not stated),"inconclusive: 10.3 µM [cytotoxic, partial curve]",–
Cc1ccccc1CN1C(=O)c2ccccc2C1c1nnnn1-c1ccc2c(c1)OCCO2 (configuration not stated),active: 5.8 µM,–
CNS(=O)(=O)c1cccc(C(=O)OCC(=O)c2c(N)n(C)c(=O)n(C)c2=O)c1,–,inactive: 7.27%
COC(=O)c1ccc(S(=O)(=O)NCc2ccc(OC)cc2)n1C,–,inactive: 5.83%
O=C(Nc1nc(-c2ccccc2)c(-c2ccccc2)s1)c1ccc(S(=O)(=O)N2CCCC2)cc1,active: 4.11 µM,–
COc1ccc(C(=O)Nc2cccc(NC(=O)c3ccc(OC)c(OC)c3)n2)cc1OC,"inconclusive: 9.2 µM [cytotoxic, partial curve, poor fit]",–

# A draw from above in order of heavy-atom count, falling:
Structure (SMILES),Potency,"activity change, negative = cytotoxicity"
COc1ccccc1/C=C1\SC(=S)N(CCC(=O)NCCc2ccc(O)cc2)C1=O,"inconclusive: 29.1 µM [rising, single point]",–
O=C(CN1C(=O)c2ccccc2C1=O)NCC(=O)OCC(=O)c1ccc(Br)cc1,"inconclusive: 16.4 µM [rising, partial curve, poor fit]",–
COC(=O)c1ccc(S(=O)(=O)NCc2ccc(OC)cc2)n1C,–,inactive: 5.83%

# Complete entries, looked up by structure:
# Cc1ccccc1CN1C(=O)c2ccccc2C1c1nnnn1-c1ccc2c(c1)OCCO2 (configuration not stated) as listed: Potency: active: 5.8 µM
# CC(C)C(NS(=O)(=O)/C=C/c1ccccc1)C(=O)NCc1ccc(F)cc1 (configuration not stated) as listed: Potency: inconclusive: 23.1 µM [rising, single point]

# (more compounds)

Structure (SMILES),Potency,"activity change, negative = cytotoxicity"
COc1ccc(CCNc2oc(-c3ccc(OC)c(OC)c3)nc2P(=O)(OC)OC)cc1OC,–,inactive: -3%
CC(=O)NC(=C(Cl)Cl)S(=O)(=O)c1ccccc1,"inconclusive: 23.1 µM [cytotoxic, single point]",–
COc1ccc(C(=O)O)cc1S(=O)(=O)Nc1ccc(N2CCCCC2)cc1,"inconclusive: 29.1 µM [rising, single point]",–
CCn1ccc2cc(S(=O)(=O)N3CCCN(C(=O)Nc4cc(Cl)ccc4C)CC3)ccc21,"inconclusive: 7.31 µM [cytotoxic, partial curve]",–
O=C(NCc1ccccc1)Nc1cccn(Cc2cccc(F)c2)c1=O,"inconclusive: 29.1 µM [cytotoxic, single point]",–
O=C(COc1ccc(Cl)cc1)N1CCN(c2ccc([N+](=O)[O-])c(N3CCOCC3)c2)CC1,active: 16.4 µM,–
Cc1nc2ccc(Nc3nc4cc(S(=O)(=O)N5CCOCC5)ccc4o3)cc2s1,–,inactive: 1.07%
C[C@H](CO)N1C[C@H](C)[C@@H](CN(C)S(=O)(=O)c2ccc(Oc3ccccc3)cc2)OCc2cn(nn2)CCCC1=O,–,inactive: 9.08%
CCCc1cc(=O)oc2cc(C)cc(OCC(=O)Nc3ccc(CN4CCOCC4)cc3)c12,"inconclusive: 20.6 µM [cytotoxic, partial curve]",–
CCNc1nnc(-c2ccc(C)cc2)o1,–,inactive: 16.5%
O=C1OC(Sc2ccccc2)(c2ccccc2)c2ccccc21 (configuration not stated),–,inactive: -22.6%
O=C(NC1CCCCC1)c1cnn2c(C(F)(F)F)cc(-c3ccco3)nc12,"inconclusive: 16.4 µM [cytotoxic, single point]",–
CCOc1ccc(NC(=O)Nc2ccc3snnc3c2)cc1,"inconclusive: 1.46 µM [rising, full curve, poor fit]",–
O=C(O)Cn1ccnc1[N+](=O)[O-],"inconclusive: 18.4 µM [rising, single point]",–
CC(Oc1ccc(Br)cc1)C(=O)NCC(c1cccs1)N1CCOCC1 (configuration not stated),"inconclusive: 11.6 µM [cytotoxic, partial curve]",–
Cc1cccc(C(=O)NC(=S)Nc2ccc(S(=O)(=O)N3CCCCC3)cc2)c1,–,inactive: -3.01%
CCOc1ccc2[nH]c(=O)c(CN(Cc3nnnn3Cc3ccccc3)CC3CCCO3)cc2c1 (configuration not stated),–,inactive: -14.2%
CCOC(=O)N(O)c1ccc(C=Cc2ccccc2)cc1,active: 20.6 µM,–
O=C(c1ccc([N+](=O)[O-])cc1)N1CCSC1c1ccc(Br)cc1 (configuration not stated),"inconclusive: 16.4 µM [cytotoxic, single point]",–
Cc1ccc(-c2noc(CSc3nnc(-c4ccccc4)n3C)n2)cc1,–,inactive: -10.1%
CC(C)C[C@H](NC(=O)OC(C)(C)C)c1nnc(SCc2ccccc2)o1,"inconclusive: 13 µM [cytotoxic, partial curve, poor fit]",–
C=CCn1c(SCc2ccc(C(=O)Nc3ccccc3)cc2)nnc1-c1ccccc1,active: 2.59 µM,–
CC(C)(C)OC(=O)N[C@H](/C=C/c1ccccc1)C(=O)OC(C)(C)C,–,inactive: -11%
CC(C)C1CCN(C(=O)C2CCC(=O)N(CCc3ccc(Cl)cc3)C2)CC1 (configuration not stated),"inconclusive: 4.61 µM [cytotoxic, full curve]",–

Structure (SMILES),Potency,"activity change, negative = cytotoxicity"
Cc1ccc(-c2nc(CS(=O)(=O)CC(=O)N3CC(C)CC(C)C3)c(C)o2)cc1 (configuration not stated),"inconclusive: 29.1 µM [cytotoxic, single point]",–
CN(C)CCCNC(=O)N1c2ccccc2C=Cc2ccccc21,–,inactive: 7.39%
CCCNC(=O)C1(C)CCCN(C(=O)Cc2ccc(OC)c(OC)c2)C1 (configuration not stated),–,inactive: -0.588%
NS(=O)(=O)c1cccc(NC(=O)CSc2nnc(C3CC3)n2C2CC2)c1,"inconclusive: 29.1 µM [cytotoxic, single point]",–
Cn1c(=O)c(C(=O)NC2CCCCCCC2)c(O)c2ccccc21,active: 20.6 µM,–
CCN(CC)c1ncnc2c1ncn2[C@H]1CN(Cc2ccncc2)C[C@@H](CO)O1,–,inactive: 0.451%
Cc1cc(C)cc(-n2c(SCC(=O)NCC3CCCO3)nc3c([nH]c4ccccc43)c2=O)c1 (configuration not stated),–,inactive: 3.92%
COCCNC(=O)c1cccc(OC2CCN(Cc3ccc(Cl)c(F)c3)CC2)c1,"inconclusive: 14.6 µM [cytotoxic, partial curve, poor fit]",–
COc1cccc(C(C[N+](=O)[O-])c2c(C)[nH]n(-c3ccccc3)c2=O)c1 (configuration not stated),–,inactive: 0.595%
Cc1cccc(CN2CCN(c3nc4nonc4nc3NC3CC3)CC2)c1,"inconclusive: 6.51 µM [cytotoxic, partial curve]",–
CN(Cc1nc(-c2ccc3c(c2)OCO3)no1)CC1(N2CCOCC2)CCCCC1,"inconclusive: 9.2 µM [cytotoxic, partial curve, poor fit]",–
O=C(NNC(=O)c1cncc(Br)c1)c1ccncc1,"inconclusive: 29.1 µM [rising, single point]",–
CN1CCN(C(=O)Cn2ncc3c([nH]c4ccccc43)c2=O)CC1,"inconclusive: 20.6 µM [rising, single point]",–
Cc1cc(C)c2nc(-c3cccnc3)cc(C(=O)NC(C)c3cnn(C)c3C)c2c1 (configuration not stated),"inconclusive: 20.6 µM [cytotoxic, partial curve, poor fit]",–
Cc1cc(C)cc(N(C(=O)CNS(=O)(=O)c2ccccc2)C(C(=O)NCc2ccccc2)c2ccc(C)o2)c1 (configuration not stated),–,inactive: -24%
COc1cccc(C(C)(O)c2nc(-c3cnn(C)c3)cs2)c1 (configuration not stated),"inconclusive: 25.9 µM [cytotoxic, single point]",–
CCOc1ccc(CCNC(=O)c2ccc3nc(N4CCOCC4)sc3c2)cc1OCC,"inconclusive: 0.58 µM [cytotoxic, full curve, poor fit]",–
O=CN1CCC(=O)N(Cc2ccccc2)c2ccccc21,–,inconclusive: -20.9%
C[C@H](c1ccccc1)N1C[C@H](COCc2ccccc2)Oc2cc(N3CC[C@@H](O)C3)ccc2S1(=O)=O,active: 23.1 µM,–
Cc1ccccc1-c1cc2nc(Oc3cccc(F)c3)n(C)c(=O)c2s1,"inconclusive: 23.1 µM [cytotoxic, single point]",–
CCCOc1ccc(/C=N/NC(=O)C(C)Sc2ccccn2)cc1OCC (configuration not stated),–,inconclusive: -25.2%
N=c1c(C(=O)NCc2ccc(F)cc2)cc2c(=O)n3ccccc3nc2n1Cc1cccnc1,"inconclusive: 11.6 µM [cytotoxic, partial curve]",–
O=C(Nc1cccc(-c2ccc3nncn3n2)c1)C(F)(F)F,–,inactive: 11.9%
CCCCC[C@H](O)/C=C/C1C(=O)C=C[C@H]1C/C=C\CCCC(=O)OC (some centres not stated),–,inactive: 0%
